Measurements reported in US20110311544A1.
These are yes or no findings as the source states them, for the method shown. Some binding calls cover weakened binding; strength is not graded here.

Tests used:
[1] = target: CD71 (transferrin receptor) on human tumour cell lines (human) (UniProt P02786); assay: quantitative flow cytometry on A375 cells
[2] = target: CD71 (transferrin receptor) on human tumour cell lines (human) (UniProt P02786); assay: cross-blocking on A375 cells, flow cytometry
[3] = target: CD71 (transferrin receptor) on human tumour cell lines (human) (UniProt P02786); assay: tissue distribution and immunoprecipitation
[4] = target: CD71 (transferrin receptor) on human tumour cell lines (human) (UniProt P02786); assay: quantitative indirect immunofluorescence flow cytometry (Qifikit) on cell lines

Measured: binding

B1: anti-CD71 mAb BA120g (antibody, V domains shown)
VH: EVQLQQSGTVLARPGASVKMSCKASGYSFTIYWIHWVKQRPGQGLEWIATIYPGNSDIIYNQKFKGKAKLTAVTSASTAYMELSSLTNEASAVYYCTRQGYDYYAMDYWGQGTSVTVSS
VL: DVQITQSPSYLAASPGETIIINCRASKSISKYLAWYQEKPGKTNKLLIYSGSTLQSGIPSRFSGSGSGTDFTLTISSLEPQDFAMYYCQQHNEYPWTFGGGTKLEIKR
binds: all assays above
